Assay results reported in US20230279141A1 (MINERVA BIOTECHNOLOGIES, published 2023).
These are yes or no findings as the source states them, for the method shown. Some binding calls cover weakened binding; strength is not graded here.

Sequences of proteins named here, by UniProt entry; tags and fusion partners are left off. Residues count along the entry.
UniProt Q9Y5B8, residues 92-376: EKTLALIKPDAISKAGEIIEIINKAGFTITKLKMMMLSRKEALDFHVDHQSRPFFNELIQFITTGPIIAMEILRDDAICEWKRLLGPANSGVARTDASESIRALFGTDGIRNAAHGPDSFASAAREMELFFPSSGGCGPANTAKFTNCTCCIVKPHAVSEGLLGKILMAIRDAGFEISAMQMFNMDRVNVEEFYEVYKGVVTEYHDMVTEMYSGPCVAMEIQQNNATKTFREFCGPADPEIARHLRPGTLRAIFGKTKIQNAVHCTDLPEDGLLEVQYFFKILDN

B1: anti-NME7AB monoclonal antibody 5F3A5D4 (antibody, V domains shown)
VH: VQLQQSGPDLVKPGTSVKISCKTSGNTFTEYTMHWVKQSHGKSLEWIGGFNPNNGVTNYNQKFKGKATLTVDKSSSTAYMELRSLTSEDSAVYYCARRYYHSTYVFYFDSWGQGTTLTVSS
VL: DIQMTQTTSSLSASLGDRVTISCSASQGISNYLNWFQQKPDGTIKLLIYYTSSLHSGVPSRFSGSGSGTDYSLTISNVEPEDIATYYCQQYSKLPYTFGGGTKLEIKR
notes: Mouse monoclonal
B2: anti-NME7AB monoclonal antibody 8F9A5A1 (antibody, V domains shown)
VH: IQLVQSGPELKKPGETVKISCKASGYTFTNYGMNWVKQAPGKGLKWMGWINTYTGEPTYVDDFKGRFAFSLETSATTAYLQINNLKNEDTSTYFCARLRGIRPGPLAYWGQGTLVTVSA
VL: EILLTQSPAIIAASPGEKVTITCSASSSVSYMNWYQQKPGSSPKIWIYGISNLASGVPARFSGSGSGTSFSFTINSMEAEDVATYYCQQRSSYPPTFGGGTKLEIKR
notes: Mouse monoclonal

Legend:
[1] = biological target: NME7AB-like protein (~33 kDa NME7 species) (human) (UniProt Q9Y5B8); assay: immunofluorescence on T47D, ZR-75-1, H1975, H292, HPAFII and DU145 cells (FIG. 47)
[2] = biological target: NME7AB-like protein (~33 kDa NME7 species) (human) (UniProt Q9Y5B8); assay: immunofluorescence on cancer cell lines, in parallel to FIG. 47

Binder	binding [1]	binding [2]
B1	binds	–
B2	–	binds
